Experimental data: PubChem BioAssay AID694 (Emory University Molecular Libraries Screening Center, 2007)
Where “and” joins values, the source holds several entries; their conditions need not be identical. Identical values can stand only once. Some of the results follow. Shown are side measurements of this screen, not its main read-out; they come without a call.

The chains behind the UniProt entries cited, without tags or fusion partners.
UniProt P03372, whole entry, looked up: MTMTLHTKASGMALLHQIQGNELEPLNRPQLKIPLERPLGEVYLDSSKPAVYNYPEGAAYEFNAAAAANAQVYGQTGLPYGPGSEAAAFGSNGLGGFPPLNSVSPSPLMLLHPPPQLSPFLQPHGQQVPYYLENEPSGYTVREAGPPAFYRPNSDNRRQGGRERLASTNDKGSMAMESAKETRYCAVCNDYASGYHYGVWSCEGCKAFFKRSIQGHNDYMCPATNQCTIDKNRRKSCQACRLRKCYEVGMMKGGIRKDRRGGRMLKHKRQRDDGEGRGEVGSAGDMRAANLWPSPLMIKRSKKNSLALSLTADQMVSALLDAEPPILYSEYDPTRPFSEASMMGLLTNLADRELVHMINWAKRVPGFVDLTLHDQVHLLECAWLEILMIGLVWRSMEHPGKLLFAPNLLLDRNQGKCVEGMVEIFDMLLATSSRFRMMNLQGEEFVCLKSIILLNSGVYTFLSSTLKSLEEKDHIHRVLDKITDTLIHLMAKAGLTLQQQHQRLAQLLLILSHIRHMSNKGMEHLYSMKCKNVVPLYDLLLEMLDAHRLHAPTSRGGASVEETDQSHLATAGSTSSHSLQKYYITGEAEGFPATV

Target: Estrogen receptor (Homo sapiens) (UniProt P03372)
Experiment: ERα coactivator peptide binding inhibitors, primary screen, biochemical, LOPAC library, TR-FRET (AID 694);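 further: receptor was agonist-bound with estradiol present during the assay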
Settings: TR-FRET ERalpha-coactivator peptide binding, at 15 µM, stronger effect = higher value

| SMILES | inhibition |
| --- | --- |
| NOCC(=O)O | -4.58% |
| CCc1cccc2c3c([nH]c12)C(CC)(CC(=O)O)OCC3 (stereo not given) | -0.46% |
| O=C1N(c2ccccc2)c2ccccc2C1(Cc1ccncc1)Cc1ccncc1 | 0.22% |
| CCCn1c(=O)c2[nH]c(-c3ccc(S(=O)(=O)O)cc3)nc2n(CCC)c1=O | -3.46% |
| OC(CCN1CCCCC1)(c1ccccc1)C1CCCCC1 (stereo not given) | 3.29% |
| Cc1cn([C@H]2C[C@@H](N=[N+]=[N-])[C@@H](CO)O2)c(=O)[nH]c1=O | -0.55% |
| O=C(O)c1cc(=O)c2ccc(Cl)cc2[nH]1 | -2.77% |
| CCCCCCCCCCCCCCCCCC(=O)OC(CC(=O)O)C[N+](C)(C)C (stereo not given) | 2.65% |
| NCCS(=O)O | 1.83% |
| Cc1nc2n(c(=O)c1CCN1CCC(c3noc4cc(F)ccc34)CC1)CCCC2 | 0.2% |
| OCc1cc(C(O)CNCCCCCCOCCCCc2ccccc2)ccc1O (stereo not given) | 0.91% |
| C#CCN1C(C)=C(C(=O)OC)C(c2cccc([N+](=O)[O-])c2)C(C(=O)OCC)=C1C (stereo not given) | 0.98% |
| COC(=O)[C@@H]1[C@H]2C[C@H]3c4[nH]c5ccccc5c4CCN3C[C@@H]2CC[C@@H]1O | -7.57% |
| O=C1CCc2cc(OCCCCc3nnnn3C3CCCCC3)ccc2N1 | -4.91% |
| CCCCCCCC/C=C\CCCCCCCC(=O)NCCc1ccc(O)c(O)c1 | -2.26% |
| CC1CN(S(=O)(=O)c2cccc3cnccc23)CCN1 (stereo not given) | 2.08% |
| CCOC(=O)C1=C[C@]2(CC)CCCN3CCc4c(n1c1ccccc41)[C@@H]32 | 7.02% |
| CNCCC(Oc1ccccc1OC)c1ccccc1 (stereo not given) | 4.35% |
| CC1CNCCN1S(=O)(=O)c1cccc2cnccc12 (stereo not given) | 0.6% and 1.64% |
| O=C1C2C=CC=CC2=NC(=S)N1CCN1CCC(=C(c2ccc(F)cc2)c2ccc(F)cc2)CC1 (stereo not given) | -0.24% |
| CN1[C@@H](CC(=O)c2ccccc2)CCC[C@H]1C[C@H](O)c1ccccc1 | 2.91% |
| Cc1[nH]c(=O)c(C#N)cc1-c1ccncc1 | 2.68% |
| CN(C)CCC=C1c2ccccc2CCc2ccccc21 | 4.1% |
| NC(=O)C(=O)O | -2.52% |

| SMILES | inhibition |
| --- | --- |
| COc1cc(Cc2cnc(N)nc2N)cc(OC)c1OC | 15% |
| CN(C)c1cc2c(Nc3ccc4c(cnn4Cc4ccccc4)c3)ncnc2cn1 | -0.38% |
| NC(N)=NCc1cccc(I)c1 | -3.52% |
| CC(C)COC(=O)OCN1C(=O)CN(CCN2CC(=O)N(COC(=O)OCC(C)C)C(=O)C2)CC1=O | 1.43% |
| CN[C@H](CC(C)C)C(=O)N[C@H]1C(=O)N[C@@H](CC(N)=O)C(=O)N[C@H]2C(=O)N[C@H]3C(=O)N[C@H](C(=O)N[C@H](C(=O)O)c4cc(O)cc(O)c4-c4cc3ccc4O)[C@H](O)c3ccc(c(Cl)c3)Oc3cc2cc(c3O[C@@H]2O[C@H](CO)[C@@H](O)[C@H](O)[C@H]2O[C@H]2C[C@](C)(N)[C@H](O)[C@H](C)O2)Oc2ccc(cc2Cl)[C@H]1O | 3.29% |
| COc1ccc2c(c1)CCC1C2CC[C@@]2(C)C1CC[C@@H]2NCCCCCCN1C(=O)C=CC1=O (stereo not given in full) | 15.4% |
| NC(=S)c1ccc[n+]([C@@H]2O[C@@H](COP(=O)([O-])OP(=O)(O)OC[C@H]3O[C@@H](n4cnc5c(N)ncnc54)C(OP(=O)(O)O)[C@H]3O)C(O)C2O)c1 (stereo not given in full) | 3.63% |
| CCCCC/C=C\CC(O)/C=C/c1cccc(CC(O)CCCCO)n1 (stereo not given) | 4.45% |
| O=C(O)c1ccccc1Nc1ccccc1 | -4.54% |
| CN1CCN(C2=Nc3cc(Cl)ccc3Nc3ccccc32)CC1 | -4.51% |
| C[C@H](Cc1ccccc1)Nc1ncnc2c1ncn2[C@@H]1O[C@H](CO)[C@H](O)C1O (stereo not given in full) | 3.1% |
| NC(Cc1cccc(-c2ccccc2CP(=O)(O)O)c1)C(=O)O (stereo not given) | 2.23% |
| NCCCCNCCCN | -5.98% |
| CC(C)NC[C@H](O)COc1ccc(CC(N)=O)cc1 | -2.11% |
| CCOC(=O)C(C)(C)Oc1ccc(Cl)cc1 | -2.66% |
| CC(N)=NCCCC[C@@H](N)C(=O)O | 1.12% |
| CO[C@@]1(NC(=O)CSCC#N)C(=O)N2C(C(=O)O)=C(CSc3nnnn3C)CS[C@@H]21 | 9.31% |
| CN1CCC(=C2c3ccccc3CC(=O)c3sccc32)CC1 | -6.19% |
| O=c1ccc2ccc(O)c(O)c2o1 | 11.7% |
| CN1CCc2ccccc2Cc2[nH]c3ccccc3c2CC1 | 1.86% |
| O=C(O)CCC(=O)N1CCCC1C(=O)O (stereo not given) | 2.06% |
| CSc1ccc(C(=O)c2[nH]c(=O)[nH]c2C)cc1 | 4.42% |
| S=C(Nc1ccccc1)Nc1nccs1 | -3.09% |
| CN(Cc1cnc2nc(N)nc(N)c2n1)c1ccc(C(=O)N[C@@H](CCC(=O)O)C(=O)O)cc1 | -7.46% |

| SMILES | inhibition |
| --- | --- |
| CCCCCCCCCC(=O)NC(CN1CCOCC1)[C@H](O)c1ccccc1 (stereo not given in full) | 7.7% |
| COc1cc2c(CCNC(C)=O)c[nH]c2cc1Cl | -2.79% |
| Cc1ccc(S(=O)(=O)NC(=O)NN2CCCCCC2)cc1 | 6.33% |
| C=CCn1c(=O)c2c(nc(-c3ccc(S(=O)(=O)O)cc3)n2C)n(C)c1=O | -4.56% |
| COc1cc(-c2ccc(=O)[nH]n2)ccc1OC(F)F | 4.69% |
| CC(N)=NCCC[C@H](N)C(=O)O | -1.21% |
| CCCCNc1c(C(=O)OCC)c(C)nc2c1cnn2CC | 7.16% |
| O=c1[nH]c(=O)n([C@H]2C[C@H](O)[C@@H](CO)O2)cc1Br | -0.87% |
| Nc1ccc(CCNc2ncnc3c2ncn3C2OC(CO)C(O)C2O)cc1 (stereo not given) | -21.8% |
| NC(N)=Nc1nc(CSCC/C(N)=N/S(N)(=O)=O)cs1 | 2.25% |
| NC1C=CC=C(C(=O)O)C1 (stereo not given) | -0.85% |
| CC1=C(/C=C/C(C)=C/C=C/C(C)=C\C(=O)O)C(C)(C)CCC1 | 2.09% |
| CC(C)c1ccc2c(c1)c(SC(C)(C)C)c(CC(C)(C)C(=O)O)n2Cc1ccc(Cl)cc1 | 27.3% |
| Clc1ccc(N2CCN(Cc3c[nH]c4ncccc34)CC2)cc1 | -3.73% |
| CC(C)(C)c1ccc(C(O)CCCN2CCC(C(O)(c3ccccc3)c3ccccc3)CC2)cc1 (stereo not given) | 4.21% |
| c1ccc2nc(C3=NCCN3)ccc2c1 | -2.32% |
| NCCCNCCSP(=O)(O)O | -4.52% |
| Nc1ncnc2c1ncn2C1CCCO1 (stereo not given) | 6.44% |
| Nc1ccn([C@@H]2O[C@H](CO)[C@@H](O)[C@@H]2O)c(=O)n1 | -0.14% |
| CCCCCCCCCCCCCCCCOCC(COCC(F)(F)F)OP(=O)(O)OCO (stereo not given) | 8.86% |
| N[C@@H](Cc1ccc(O)c(I)c1)C(=O)O | 0.02% |
| CC(C)Cn1c(=O)n(C)c(=O)c2[nH]cnc21 | -4.17% |
